Results deposited as PubChem BioAssay AID652243 (Drosophila RNAi Screening Center, 2013)

Test: 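Fly genes required for human androgen receptor driven transcription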 (primary screen)
Cell system: Drosophila S2R+ cells
Knock-down reagent: long dsRNA against Drosophila genes
Timing: 72 h (48 h, then 24 h hormone)
Challenge: synthetic androgen R1881 at 10 nM for 24 h
Measurement: 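Firefly light from an androgen-responsive reporter and Renilla control light per well, raw and unnormalised, for each of two replicates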
Scale: firefly reporter light: higher = more light from androgen-responsive reporter; Renilla control light: higher = more constitutive control signal (cell number, transfection)
Active means: 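Hit when the log firefly-to-Renilla ratio dropped or increased by a fixed fold versus the mean of GFP or LacZ controls across duplicate plates; lowering cut given as 1.5 and as 3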
Meaning of the calls: active = hit: reporter lowered or raised; inactive = no hit
In all, the deposit lists about 24,000 reagents; below is a random part of those that have a named target and a result. Of all reagents, 246 (1%) were called active. 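Plates not normalised; calls are printed but the firefly/Renilla ratio behind them is not deposited; fold cut for lowering reported inconsistently.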 Raw values are not corrected between plates. A number with no mark means an inactive call. Reagents against one gene are numbered here. Not given: the amount of reagent.

| gene knocked down | dsRNA no. | firefly reporter light, replicate 1 | firefly reporter light, replicate 2 | Renilla control light, replicate 1 | Renilla control light, replicate 2 |
| --- | --- | --- | --- | --- | --- |
| mlt (retired record) | 1 | 7.48e5 | 1.01e6 | 1.58e6 | 2.02e6 |
| mlt (retired record) | 2 | 6.22e5 | 4.37e5 | 7.83e5 | 5.53e5 |
| Srp19 | 1 | 1.55e5 | 1.45e5 | 1.89e6 | 2.12e6 |
| Srp19 | 2 | 2.64e5 | 2.45e5 | 6.62e5 | 3.91e5 |
| CG3777 | 1 | 1.12e6 | 1.05e6 | 2.79e6 | 4.10e6 |
| CG3777 | 2 | 8.74e5 | 7.16e5 | 1.24e6 | 1.31e6 |
| Dso2 | 1 | 7.11e5 | 8.82e5 | 1.35e6 | 1.68e6 |
| stau | 1 | 6.72e5 | 6.09e5 | 8.78e5 | 5.99e5 |
| CG13667 | 1 | 1.00e6 | 1.08e6 | 1.33e6 | 1.54e6 |
| alphaTub67C | 1 | 1.53e5 | 1.77e5 | 1.91e6 | 1.89e6 |
| alphaTub67C | 2 | 7.47e5 | 6.82e5 | 8.08e5 | 9.19e5 |
| dj | 1 | 1.51e5 | 1.31e5 | 2.85e6 | 2.55e6 |
| dj | 2 | 6.64e5 | 3.87e5 | 3.72e5 | 4.16e5 |

4 entries from above, arranged by “Renilla control light, replicate 1”, high to low:
| gene knocked down | dsRNA no. | firefly reporter light, replicate 1 | firefly reporter light, replicate 2 | Renilla control light, replicate 1 | Renilla control light, replicate 2 |
| --- | --- | --- | --- | --- | --- |
| dj | 1 | 1.51e5 | 1.31e5 | 2.85e6 | 2.55e6 |
| alphaTub67C | 1 | 1.53e5 | 1.77e5 | 1.91e6 | 1.89e6 |
| alphaTub67C | 2 | 7.47e5 | 6.82e5 | 8.08e5 | 9.19e5 |
| dj | 2 | 6.64e5 | 3.87e5 | 3.72e5 | 4.16e5 |

The list goes on:
| gene knocked down | dsRNA no. | firefly reporter light, replicate 1 | firefly reporter light, replicate 2 | Renilla control light, replicate 1 | Renilla control light, replicate 2 |
| --- | --- | --- | --- | --- | --- |
| DUBAI | 1 | 8.03e5 | 2.06e5 | 7.15e5 | 5.60e5 |
| moody | 1 | 2.21e5 | 2.80e5 | 3.64e6 | 3.74e6 |
| CG34431 | 1 | 3.90e5 | 2.73e5 | 9.77e5 | 8.06e5 |
| Vha68-2 | 1 | 3.08e5 | 2.46e5 | 2.03e6 | 1.83e6 |
| Vha68-2 | 2 | 3.80e5 | 4.27e5 | 1.14e6 | 1.16e6 |
| CG3764 | 1 | 32131 | 19543 | 2.07e5 | 2.24e5 |
| CG31832 | 1 | 4.92e5 | 4.74e5 | 2.81e6 | 1.60e6 |
| CG31832 | 2 | 3.51e5 | 3.87e5 | 7.67e5 | 8.07e5 |
| CG11878 | 1 | 1.62e5 | 2.11e5 | 1.63e6 | 1.88e6 |
| CG11878 | 2 | 7.08e5 | 7.01e5 | 8.01e5 | 7.57e5 |
| CG12279 | 1 | 1.51e5 | 1.57e5 | 2.00e6 | 1.74e6 |
